The shares of active, inactive and inconclusive entries below differ from those in the screen. Potencies beside an inconclusive call are fits to weak or partial responses and may not hold up. Activity calls are given as the source filed them. Calls come from the whole dose curve; as a rule, active = well fitted activation curve with a large enough effect in the repeat runs; inconclusive = weak or mixed curves; inactive = flat fitted curve, though single readings scatter.
Assay: A CellTox Green Cytotoxicity Assay to monitor cytotoxicity in HEK293 cells - 24 hour (AID 1224875); note: nearly all actives have a fitted effect of over 45% in size
Conditions: CellTox Green fluorescence; series mostly up to 76.8 µM; activity change: at the top concentration
Outline: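 Nonlytic real-time cytotoxicity: HEK293 + CellTox Green reagent plated, 5 h preincubation, pintool compound addition (23 nL in DMSO), 37 C for 40 h, fluorescence measured at successive time points.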
% is set by controls: 0 for no effect and ±100 for the full control effect; potency is the fitted concentration of half-maximal effect.

SMILES | Potency | activity change
O=C=NC1CCC(CC2CCC(N=C=O)CC2)CC1 (stereo unspecified) | inconclusive: 54.9 µM [activator, single point] | –
CS(C)=O | – | inactive: 2.88%
CCNc1cccc(C)c1 | inactive | –
Cc1ccc2ncccc2c1 | inconclusive: 0.309 µM [activator, partial curve, poor fit] | –
CSc1ccc(O)cc1C | – | inactive: 17%
CC(=O)OCC(=O)[C@@]12OC(C)(C)O[C@@H]1C[C@H]1[C@@H]3C[C@H](F)C4=CC(=O)C=C[C@]4(C)[C@@]3(F)[C@@H](O)C[C@@]12C | inconclusive: 23.9 µM [activator, partial curve] | –
CCN1CCCC1CNC(=O)c1cc(S(N)(=O)=O)ccc1OC (stereo unspecified) | – | inactive: 1.21%
CCCCCCCCCCCCCCCCN | active: 10.7 µM | –
Cc1nc2ccc(CN(C)c3ccc(C(=O)N[C@@H](CCC(=O)O)C(=O)O)s3)cc2c(=O)[nH]1 | – | inactive: 11.3% [at 35.3 µM, stronger effect = higher value]
C[C@]12CCC(=O)C=C1CC[C@@H]1[C@@H]2CC[C@@]2(C)[C@H]1CC[C@]2(O)C(=O)CO | – | inactive: 5.67% [at 35.3 µM, stronger effect = higher value]
COc1cc(NC(=O)CC(C)=O)c(OC)cc1Cl | inactive | –

No new results follow: an excerpt of the list.
SMILES | Potency | activity change
CSc1ccc(O)cc1C | – | inactive: 17%
CC(=O)OCC(=O)[C@@]12OC(C)(C)O[C@@H]1C[C@H]1[C@@H]3C[C@H](F)C4=CC(=O)C=C[C@]4(C)[C@@]3(F)[C@@H](O)C[C@@]12C | inconclusive: 23.9 µM [activator, partial curve] | –

Source: PubChem BioAssay (Tox21)
